Consider 18 compounds from PubChem BioAssay AID328 (DTP/NCI, 2004).

The subject of this assay is BDF1 mice, P388 leukemia ip, median survival T/C. The experiment in a line: NCI In Vivo Anticancer Drug Screen. Data for tumor model P388 Leukemia (intraperitoneal) in B6D2F1 (BDF1) mice. The following applies: T/C endpoint: median survival time, higher T/C = longer survival. Summed up:
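Reported as T/C, where T is the survival measurement in dosed animals and C the same measurement in vehicle controls.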

Setting [1] is: dose: 200.0 mg/kg/injection, schedule: Q04DX003 (ip), vehicle: saline.
[2] abbreviates: dose: 12.5 mg/kg/injection, schedule: Q01DX009 (ip), vehicle: water.
Where [3] appears, read: dose: 25.0 mg/kg/injection, schedule: Q01DX009 (ip), vehicle: water.
[4] abbreviates: dose: 100.0 mg/kg/injection, schedule: Q01DX009 (ip), vehicle: saline with Tween-80.

The list is a part of this screen's results and no random one: it is rich in T/C values a quarter to a half above the control, in often repeated tests (any T/C) and in doses without a T/C. Further doses and runs are listed elsewhere. T/C gives the treated animals as a percentage of the vehicle group. Some doses have a count of surviving animals in place of a T/C: the source holds a T/C of zero for them, seemingly a mark for toxic or unscored doses. Some survivor counts are full or nearly so, which does not show that the dose was tolerated: survival well below the control is almost never listed, so the zero probably covers shortened survival too. Survivors were counted at the toxicity check, usually on the fifth day, unless a day is given; later deaths do not show. Schedule codes are those of the source, read here as Q, the interval in days (D) or hours (H), X, the number of doses. Some doses were run more than once; the results are listed from low to high. For survival time, this PubChem deposit counts one and a half times the control or more as active, and values a quarter to a half above the control carry no call in these data; other NCI protocols may use other cut-offs. Some T/C values carry the count of animals alive at the toxicity check (mostly the fifth day); where none is given, no animal had died by that day.

As to `COC(=O)C1c2cc3c(c(O)c2CCC1(C)O)C(=O)c1c(O)cc2c(c1C3=O)OC1OC2(C)C(O)C(N(C)C)C1O` (centres undefined), the T/C is 140 % of control (dose: 16.0 mg/kg/injection, schedule: Q01DX009 (ip), vehicle: saline); 125 % of control (dose: 25.0 mg/kg/injection, schedule: Q01DX010 (ip), vehicle: saline); 130 % of control (dose: 50.0 mg/kg/injection, schedule: Q01DX010 (ip), vehicle: saline); 130 % of control (dose: 100.0 mg/kg/injection, schedule: Q01DX010 (ip), vehicle: saline).
`CC(=O)Nc1ccc2c(Nc3ccc(NS(C)(=O)=O)cc3)c3ccccc3nc2c1`: the T/C was 129 % of control (dose: 3.75 mg/kg/injection, schedule: Q01DX009 (ip), vehicle: saline) and 127 % of control (dose: 60.0 micrograms/kg/injection, schedule: Q04DX003 (ip), vehicle: saline). Further, the survivor count is 6 of 6 (dose: 10.0 mg/kg/injection, schedule: Q01DX009 (ip), vehicle: saline); 6 of 6 (dose: 20.0 mg/kg/injection, schedule: Q01DX009 (ip), vehicle: saline); 6 of 6 (dose: 50.0 mg/kg/injection, schedule: Q04DX003 (ip), vehicle: saline); 6 of 6 (dose: 100.0 mg/kg/injection, schedule: Q04DX003 (ip), vehicle: saline); 6 of 6 under setting [1]; 6 of 6 (dose: 400.0 mg/kg/injection, schedule: Q04DX003 (ip), vehicle: saline).
Regarding `O=S(c1ccccc1)c1c(Cl)c(Cl)nc(Cl)c1Cl` (centres undefined), the T/C by setting is: (dose: 12.5 mg/kg/injection, schedule: Q01DX009 (ip), vehicle: saline with Tween-80) 131 % of control [5 of 6 alive]; (dose: 25.0 mg/kg/injection, schedule: Q01DX009 (ip), vehicle: saline with Tween-80) 131 % of control [4 of 6 alive]; (dose: 50.0 mg/kg/injection, schedule: Q01DX009 (ip), vehicle: saline with Tween-80) 142 % of control [5 of 6 alive]. The survivor count (dose: 100.0 mg/kg/injection, schedule: Q04DX003 (ip), vehicle: saline with Tween-80) is recorded as 1 of 6.
For `CSc1ccc(NC(=O)N(CCCl)N=O)cc1`, under “dose: 25.0 mg/kg/injection, schedule: Q04DX003 (ip), vehicle: saline sonified”, the T/C was 127 and 131 % of control.
On to `CC1=C(O)C(=O)C(C2=C(O)C(=O)C(C)=C(O)C2=O)=C(O)C1=O`, for which the survivor count by setting is: (dose: 2.5 mg/kg/injection, schedule: Q01DX010 (ip), vehicle: saline) 5 of 6; (dose: 5.0 mg/kg/injection, schedule: Q01DX010 (ip), vehicle: saline) 0 of 6.
On to `CC1(C)O[Te]2(OC1(C)C)OC(C)(C)C(C)(C)O2`, for which, where the note is “dose: 50.0 mg/kg/injection, schedule: Q01DX001 (ip), vehicle: saline with Tween-80”, the survivor count is on record as 0 of 6.
Consider `CC(=O)C1=CC(=O)NC(=O)C1C(=O)CC(C)C` (centres undefined), for which the survivor count runs as follows: (dose: 6.25 mg/kg/injection, schedule: Q01DX009 (ip), vehicle: other) 3 of 3; (dose: 12.5 mg/kg/injection, schedule: Q01DX009 (ip), vehicle: other) 3 of 3; (dose: 25.0 mg/kg/injection, schedule: Q01DX009 (ip), vehicle: other) 0 of 3 and 3 of 3; (dose: 100.0 mg/kg/injection, schedule: Q01DX009 (ip), vehicle: other) 0 of 3; (dose: 200.0 mg/kg/injection, schedule: Q01DX009 (ip), vehicle: other) 0 of 3; (dose: 400.0 mg/kg/injection, schedule: Q01DX009 (ip), vehicle: other) 0 of 3.
For `CN(CCOS(C)(=O)=O)CCOS(C)(=O)=O`, the survivor count was 6 of 6 (dose: 0.84 mg/kg/injection, schedule: Q01DX009 (ip), vehicle: saline); 6 of 6 (dose: 1.12 mg/kg/injection, schedule: Q01DX009 (ip), vehicle: saline); 6 of 6 (dose: 2.25 mg/kg/injection, schedule: Q01DX009 (ip), vehicle: saline); 5 of 6 (dose: 3.0 mg/kg/injection, schedule: Q04DX003 (ip), vehicle: saline); 6 of 6 (dose: 1.5 micrograms/kg/injection, schedule: Q01DX009 (ip), vehicle: saline); 0 of 6 (dose: 3.6 micrograms/kg/injection, schedule: Q01DX009 (ip), vehicle: saline). Further, the survivor count (dose: 5.4 micrograms/kg/injection, schedule: Q01DX009 (ip), vehicle: saline) is 0 of 6. Besides, the T/C (dose: 0.99 mg/kg/injection, schedule: Q04DX003 (ip), vehicle: saline) was 140 % of control; the T/C (dose: 1.5 mg/kg/injection, schedule: Q04DX003 (ip), vehicle: saline) is 127 % of control; the T/C (dose: 2.25 mg/kg/injection, schedule: Q04DX003 (ip), vehicle: saline) was 140 % of control; the T/C (dose: 8.3 micrograms/kg/injection, schedule: Q01DX009 (ip), vehicle: saline) was 136 % of control; the T/C (dose: 12.5 micrograms/kg/injection, schedule: Q01DX009 (ip), vehicle: saline) was 138 % of control; the T/C (dose: 29.0 micrograms/kg/injection, schedule: Q01DX009 (ip), vehicle: saline) was 142 % of control.
`CCCCC(=O)N/N=C(\C)[C@]1(O)Cc2c(O)c3c(c(O)c2[C@@H](OC2CC(N)C(O)C(C)O2)C1)C(=O)c1c(OC)cccc1C3=O` (some centres undefined): the survivor count by setting is: (dose: 6.25 mg/kg/injection, schedule: Q01DX009 (ip), vehicle: water) 6 of 6; under setting [2], 6 of 6; under setting [3], 6 of 6.
For the compound `OCC1OC(n2cc(Cl)c3cncnc32)C(O)C1O` (centres undefined), the survivor count under setting [1] was 4 of 6.
In the case of `Cc1c2cnccc2c(C)c2c1c1ccccc1n2CCNCCO`, the T/C (dose: 0.64 mg/kg/injection, schedule: Q04DX003 (ip), vehicle: saline) was 136 % of control; the T/C (dose: 1.0 mg/kg/injection, schedule: Q04DX003 (ip), vehicle: saline) is 136 % of control; the T/C (dose: 44.0 mg/kg/injection, schedule: Q04DX003 (ip), vehicle: saline with Tween-80) is 127 % of control; the T/C (dose: 66.0 mg/kg/injection, schedule: Q04DX003 (ip), vehicle: saline with Tween-80) was 136 % of control.
Turning to `N=c1c2ccccc2nc2n1CCCCCCC2`, the survivor count (dose: 100.0 mg/kg/injection, schedule: Q04DX003 (ip), vehicle: Klucel (hydroxypropylcellulose) (HPC)) is listed as 0 of 6; the survivor count (dose: 200.0 mg/kg/injection, schedule: Q04DX003 (ip), vehicle: Klucel (hydroxypropylcellulose) (HPC)) is on record as 0 of 6; the survivor count (dose: 400.0 mg/kg/injection, schedule: Q04DX003 (ip), vehicle: Klucel (hydroxypropylcellulose) (HPC)) was 0 of 6.
With `O=[N+]([O-])c1ccc(S(=O)(=O)c2ccccc2)c2nonc12`, the survivor count under setting [4] was 5 of 7.
Turning to `COc1cccc2c1C(=O)c1c(O)c3c(c(O)c1C2=O)CC(O)(/C(C)=N/NC(=O)CC(=O)N/N=C(\C)C1(O)Cc2c(O)c4c(c(O)c2C(OC2CC(N)C(O)C(C)O2)C1)C(=O)c1c(OC)cccc1C4=O)CC3OC1CC(N)C(O)C(C)O1` (centres undefined), the T/C (dose: 1.56 mg/kg/injection, schedule: Q01DX009 (ip), vehicle: water) was 138 % of control. Further, the survivor count is, setting by setting: under setting [2], 1 of 6; under setting [3], 0 of 6.
With `CCN(C(=O)CCl)C(C)(C)C(SSSC(c1ccc(Cl)cc1)C(C)(C)N(CC)C(=O)CCl)c1ccc(Cl)cc1` (centres undefined), under “dose: 25.0 mg/kg/injection, schedule: Q01DX009 (ip), vehicle: saline”, the T/C is 127 % of control.
Turning to `Nc1ccc(C(=O)O)cc1S(=O)(=O)c1cc(C(=O)O)ccc1N`, where the note is “dose: 200.0 mg/kg/injection, schedule: Q01DX009 (ip), vehicle: Klucel (hydroxypropylcellulose) (HPC)”, the survivor count was 6 of 6.
On to `CCCCN(CCCC)CCC(=O)c1ccc(OC)c2ccccc12`, for which the survivor count was 1 of 6 under setting [4] and 0 of 6 (dose: 200.0 mg/kg/injection, schedule: Q01DX009 (ip), vehicle: saline with Tween-80).
In the case of `Nc1ccc(OCCNS(=O)(=O)c2cccc(S(=O)(=O)F)c2)c(Cl)c1`, the survivor count (dose: 400.0 mg/kg/injection, schedule: Q01DX009 (ip), vehicle: saline) is given as 0 of 6.
